These results are taken from PubChem BioAssay AID493014 (National Center for Advancing Translational Sciences (NCATS), 2011).

This is one part of the list. Shown are side measurements of this screen, not its main read-out; they come without a call. Most of these compounds were active or inconclusive in the main read-out, so they are no random draw. The note in brackets gives the kind of curve behind each potency; many fits are weak.

The assay is described as follows: qHTS Assay to Find Inhibitors of Chronic Active B-Cell Receptor Signaling. The conditions noted are these: ABC-DLBCL IkBa-CBG/CBR reporter, luminescence ratio (green luciferase fused to IkBa over red control in TMD8 lymphoma cells), 4 h. Summed up:
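Concentration-response series (up to 46 uM) were applied to TMD8 dual-reporter cells for 4 h at 37C with doxycycline. Green/red ratio, after filter-overlap correction, defined %Activity; red signal alone was normalised to basal cells and zero luminescence.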
(qHTS replaces the single test concentration by a dilution series.)

[1] abbreviates: measured here: CBR red luminescence, cell number.
Setting [2] is: measured here: IkBa-CBG green luminescence.

With `CCC(C)(C)c1ccc(Oc2cccc(C(=O)O)c2)cc1`, under setting [1], the AC50 is 6.31 µM [falling, single point].
The same measure, in the same setting: with `CC(=O)Oc1ccc(C(=O)Nc2cccc(C(=O)c3cccc(NC(=O)c4ccc(OC(C)=O)cc4)c3)c2)cc1` the figure was 5.8 µM [falling, full curve].
The same measure, in the same setting: with `COc1ccc(C(=O)NN=C2CCCC2)cc1` the figure was 12.6 µM [falling, partial curve].
Still for that read-out and setting: with `O=C(N/N=C/C1C(c2ccccc2)C1(Cl)Cl)c1cccc(Cl)c1` (stereo not drawn) the figure was 25.9 µM [falling, partial curve]; with `O=C(NCC1CCCO1)c1cnn2c1NC(c1ccccc1)CC2C(F)(F)F` (stereo not drawn), 6.51 µM [rising, single point]; with `C/C(N)=C(/C#N)C(=O)CSc1nnc(-c2ccc(OC(F)F)cc2)o1`, 4.11 µM [falling, single point].
For `CCCN(CCC)CCNC(=O)c1cc(Sc2ccc(Cl)cc2)nc2ccccc12`, the AC50 under setting [1] is 5.62 µM [falling, single point].
Consider `CC(C)(C)c1csc(SCC(=O)Nc2ccc(Cl)cn2)n1`, for which, under setting [1], the AC50 is 0.82 µM [falling, full curve, poor fit].
On the same count and under the same terms, the value for `COC(=O)CCNC(=O)c1nn(Cc2ccccc2)c(=O)c2ccccc12` was 3.98 µM [falling, full curve, poor fit].
As to `Cc1noc(C)c1S(=O)(=O)NCCc1csc2nc(-c3ccc(F)cc3)nn12`, the AC50 by setting is: under setting [1], 12.6 µM [falling, single point]; under setting [2], 12.6 µM [rising, single point].
`Cc1nc2c(-c3ccc(F)cc3)c(C)nn2c(C)c1CCC(=O)N1CCN(c2ccccn2)CC1`: the AC50 under setting [1] was 20 µM [falling, partial curve, poor fit].
Regarding `CCOc1ccccc1CN1CCN(Cc2ccc3cccc(OC)c3n2)CC1CCO` (stereo not drawn), the AC50 under setting [1] was 35.5 µM [falling, single point].
Same read-out and setting: the value for `Cc1ccccc1C(=O)N1CCN(C(c2ccccc2)c2ccccc2)CC1` was 10 µM [falling, partial curve, poor fit]; that for `O=C(/C=C/c1ccccc1)OCC(=O)c1ccc[nH]1` was 20.6 µM [falling, single point]; that for `COc1ccccc1NC1=C(Cl)C(=O)N(C2CCCCC2)C1=O` was 1.26 µM [falling, full curve, poor fit].
Regarding `Cc1cc(C)n(-c2nc(NCCCN(C)C)c3c4c(sc3n2)CCCC4)n1`, the AC50 under setting [1] was 0.708 µM [rising, full curve, poor fit].
As to `N#CC1(NC(=O)Cn2ncc(Cl)c(Cl)c2=O)CCCCC1`, the AC50 was 5.8 µM [falling, full curve] under setting [1] and 6.51 µM [rising, partial curve, poor fit] under setting [2].
Consider `N#Cc1nc(-c2cccs2)oc1NCc1ccccc1Cl`, for which the AC50 under setting [1] was 0.251 µM [falling, partial curve, poor fit].
Same read-out and setting: with `CC(NC(=O)c1ccc(N2CCCC2)c([N+](=O)[O-])c1)c1ccc(S(N)(=O)=O)cc1` (stereo not drawn) the figure was 22.4 µM [rising, single point]; with `Cc1cc(C)cc(N2CC(C(=O)O)CC2=O)c1` (stereo not drawn), 3.66 µM [falling, single point]; with `O=C(C1CC1)N1N=C(c2ccccc2)CC1(O)C(F)(F)C(F)(F)F` (stereo not drawn), 14.1 µM [rising, partial curve, poor fit].
`Cc1cc(C)cc(NC(=O)C(=O)NCC2CCCN2S(=O)(=O)c2cccs2)c1` (stereo not drawn): under setting [2], the AC50 is 10.3 µM [falling, partial curve, poor fit].
For the compound `COc1ccccc1C(=O)COC(=O)CNS(=O)(=O)c1ccc(NC(C)=O)cc1`, under setting [1], the AC50 was 35.5 µM [rising, single point].
Regarding `O=C(NCCc1ccccc1)NC1CCCCC1`, the AC50 under setting [1] is 13 µM [falling, partial curve].
For `CCCN1C(=O)CN(C2CCCCC2)C(=O)C1c1ccc(OC)c(OC)c1` (stereo not drawn), under setting [1], the AC50 is 0.0891 µM [rising, full curve, poor fit].
In the case of `CC(=O)N/N=C\c1ccccc1OC/C=C/c1ccccc1`, the AC50 under setting [1] was 35.5 µM [rising, single point].
On the same count and under the same terms, the value for `Cc1nn(C)c(Cl)c1CN1CCCC(CO)(Cc2cccc(Cl)c2)C1` (stereo not drawn) was 35.5 µM [falling, single point]; that for `C=C1SC(=Nc2ccccc2Cl)N(C(=O)c2sc3ccccc3c2Cl)C12CCCCC2` was 5.62 µM [rising, single point].
The same measure, in the same setting: the value for `CCOC(=O)CSc1nc(COc2ccccc2)nc2ccccc12` was 35.5 µM [falling, partial curve, poor fit]; that for `COc1ccc(/C=N\Nc2ccccc2[N+](=O)[O-])c(C(=O)O)c1OC` was 0.631 µM [rising, full curve].
Still for that read-out and setting: the value for `COc1cc2c(cc1OC)C1=C(C#N)CC/C(=N\S(=O)(=O)c3ccccc3)N1CC2` was 3.98 µM [rising, partial curve, poor fit].
In the case of `O=C(Nc1ccc(N2CCCC2)cc1)c1cccc(F)c1`, the AC50 was 0.517 µM [falling, partial curve, poor fit] under setting [1] and 4.61 µM [rising, partial curve, poor fit] under setting [2].
`Cc1csc(NC(=O)CSc2nc3ccccc3c(=O)[nH]2)n1`: the AC50 under setting [1] is 1.03 µM [falling, full curve, poor fit].
The same measure, in the same setting: with `Cc1occc1C(=O)Nc1ccccc1C(=O)O` the figure was 10 µM [falling, partial curve, poor fit]; with `O=C(Nc1ccccc1C(=O)O)c1cncc(Br)c1`, 1.3 µM [falling, full curve]; with `N#C/C(=C/c1ccc(F)cc1)c1nnc(NC(=O)c2ccccc2)s1`, 0.112 µM [rising, full curve, poor fit].
The same measure, in the same setting: with `O=c1[nH]c(CN2CCC(c3nc4ccccc4s3)CC2)nc2sc3c(c12)CCC3` the figure was 31.6 µM [rising, single point]; with `CCOC(=O)C1=NNC2(CC(=O)N(c3cc(C)cc(C)c3)C2=O)C1` (stereo not drawn), 3.55 µM [rising, single point].
The same measure, in the same setting: the value for `NC1=NC(=Nc2ccc(Br)cc2)c2ccccc21` was 25.9 µM [falling, single point].
As for `O=c1oc([C@@H](O)c2ccccc2)cc2ccccc12`, the AC50 under setting [1] was 0.0461 µM [rising, full curve, poor fit].
The same measure, in the same setting: the value for `Cc1cc(Cl)cc(Cl)c1OCCOCCN(C)C` was 6.51 µM [rising, single point].
On the same count and under the same terms, with `O=C(NC1=NCCS1)C1COc2ccccc2O1` (stereo not drawn) the figure was 11.2 µM [falling, single point]; with `O=C(Cn1ncc(Cl)c(Cl)c1=O)NCC1CCCCC1`, 4.61 µM [falling, full curve].
As for `O=S(=O)(c1ccc(F)cc1)n1ccc(-c2cnc(-c3ccccc3)s2)n1`, the AC50 under setting [1] is 2.51 µM [rising, full curve, poor fit].
The same measure, in the same setting: the value for `O=c1c(-c2cnn(-c3ccccc3)c2)coc2cc(O)ccc12` was 5.01 µM [falling, partial curve].
Still for that read-out and setting: the value for `O=C(COc1ccccc1)NNc1c2ccccc2nc2ccccc12` was 22.4 µM [falling, single point].
Still for that read-out and setting: with `COC(=O)C1=C(C)N=c2s/c(=C/c3cccs3)c(=O)n2C1c1ccc(F)cc1` (stereo not drawn) the figure was 0.651 µM [falling, full curve]; with `CCCCCCOc1ccc(OCC(O)CN2C(=O)NC(C)(C)C2=O)cc1` (stereo not drawn), 29.1 µM [rising, single point]; with `COc1ccc(S(=O)(=O)Nc2ccc(S(=O)(=O)N3CCCCC3)cc2)cc1C`, 35.5 µM [falling, single point].
Consider `O=C(NCc1ccccc1)c1cc2ccccc2o1`, for which the concentration at half-maximal activity (AC50) under setting [1] is 20.6 µM [falling, partial curve].
Same read-out and setting: the value for `COc1ccc(OC)c2sc(N(Cc3cccnc3)C(=O)c3ccc(C(C)=O)cc3)nc12` was 25.1 µM [falling, single point]; that for `CCC(C)NS(=O)(=O)c1ccc(OC)c(Cl)c1Cl` (stereo not drawn) was 1.84 µM [rising, partial curve, poor fit].
Still for that read-out and setting: the value for `O=C(Nc1ccc2nn(-c3ccccc3)nc2c1)c1ccc2c(c1)OCO2` was 2.31 µM [falling, partial curve, poor fit]; that for `CN(CC(=O)O)Cc1nc2ccccc2[nH]1` was 6.51 µM [rising, partial curve, poor fit].
With `Cn1c(=O)c2[nH]c(-c3cccnc3)nc2n(C)c1=O`, the AC50 under setting [1] is 0.316 µM [falling, full curve, poor fit] and the AC50 under setting [2] was 1 µM [rising, partial curve, poor fit].
For the compound `c1ccc(CNc2nnnn2-c2ccccc2)cc1`, under setting [1], the AC50 was 6.51 µM [rising, single point].
Same read-out and setting: the value for `CC(C)C(=O)Nc1ccc(Nc2ccccc2)cc1` was 3.66 µM [rising, partial curve].
Same read-out and setting: the value for `O=c1c2c(-c3ccccc3)csc2ncn1/N=C/c1ccc(O)c([N+](=O)[O-])c1` was 1.26 µM [falling, full curve, poor fit]; that for `COc1ccc(OC)c(C(=O)/C=C/c2cccnc2)c1` was 5.01 µM [falling, partial curve]; that for `O=C(N/N=C/C(Cl)=C\c1ccccc1)c1cccs1` was 35.5 µM [falling, single point].
Still for that read-out and setting: with `O=C1c2ccccc2C(=O)N1CCCc1nc2ccccc2c(=O)n1-c1cccnc1` the figure was 12.6 µM [rising, partial curve, poor fit].
With `COc1cc(CN2CCN(S(=O)(=O)c3ccc(NC(C)=O)cc3)CC2)cc(OC)c1O`, the concentration at half-maximal activity (AC50) under setting [1] was 15.8 µM [rising, single point].
The same measure, in the same setting: the value for `O=C(O)c1ccc(CNC(=O)c2ccccc2NC(=O)c2ccc([N+](=O)[O-])cc2)cc1` was 17.8 µM [falling, partial curve, poor fit]; that for `COc1ccc(S(=O)(=O)N/N=C\c2ccc(OC)c(COc3ccc(C)cc3[N+](=O)[O-])c2)cc1` was 2.91 µM [rising, partial curve, poor fit].

The AC50 is the midpoint of the concentration-response curve, whichever way the signal moves.
